Test results reported in US10806765B2, “Immunologically active phyto-mixture and its use in the prevention and in a method for treatment of efflorescences” (priority 2015, dated 2020).

Tested on: Staphylococcus aureus ATCC 25923
Assay: MIC/MBC, microbouillon dilution
Type: cell-based
Conditions: ATCC25923
Protocol: Gram-Positive Bacteria • Methicillin resistant Staphylococcus aureus MRSA NCTC 10442 (MRSA NCTC 10442) • Staphylococcus aureus ATCC 25923 (S. aureus ATCC 25923) • Staphylococcus epidermidis ATCC 14990 (S. epid. ATCC 14990)
Gram-Negative Bacteria • Pseudomonas aeruginosa ATCC 27853 (P. aerug. ATCC 27853) and • Acinetobacter baumanii ATCC BAA747 (ATCC BAA747)
The bacteria were precultivated on Columbia medium with 5% sheep blood at 37° C. for 24 hours. On to two colonies were suspended in saline solution (0.9% NaCl) and adjusted to a turbidity of 0.5 McFarland standard which corresponds to 1×10^8 colony forming units per milliliter (CFU/ml). Subsequently, the suspension was diluted to 1×10^6 CFU/ml.
Determination of the Minimal Inhibitory Concentration (MIC) and the Minimum Bactericidal Concentration (MBC)
The MIC was determined by means of the microbouillon dilution process according to NCCLS (2006). For this purpose, the aqueous extracts were dissolved in water (w/v) and the ethanolic extracts in 5% DMSO (w/v) with 80 mg/ml each and Bur. simaruba as well as Aloe vera were suspended with 160 mg/ml. […]
The MIC was determined at 600 nm on the basis of the turbidity. […] The MBC was determined as lowest concentrations of the respective extract which totally kills the microorganisms. […]

## CN[C@H](CC(C)C)C(=O)N[C@H]1C(=O)N[C@@H](CC(N)=O)C(=O)N[C@H]2C(=O)N[C@H]3C(=O)N[C@H](C(=O)N[C@H](C(=O)O)c4cc(O)cc(O)c4-c4cc3ccc4O)[C@H](O)c3ccc(c(Cl)c3)Oc3cc2cc(c3O[C@@H]2O[C@H](CO)[C@@H](O)[C@H](O)[C@H]2O[C@H]2C[C@](C)(N)[C@H](O)[C@H](C)O2)Oc2ccc(cc2Cl)[C@H]1O [Van, Vancomycin]
  MIC: 0.5 µg/mL
